Results reported in PubChem BioAssay AID504444 (National Center for Advancing Translational Sciences (NCATS), 2011).
“And” between values parts separate entries of the source, which are not always exact repeats. Identical values can stand only once. Hit rate of the full screen: of about 360,000 compounds, about 7,500 (2.1%) were called active. The shares of active, inactive and inconclusive entries below differ from those in the screen. The call rests on the fitted dose curve; in most records, active means well fitted inhibition curve with a large enough effect; inconclusive means small, poorly fitted or top-dose-only effect, or effect the other way; inactive means flat fitted curve, though single readings scatter. Where the call is inconclusive, the potency comes from a doubtful curve fit.

assay: Nrf2 qHTS screen for inhibitors; conditions: A549 ARE-Fluc reporter, luciferase luminescence, 18-24 h; series mostly up to 46 µM; further: nearly all actives have a fitted effect of over 60% in size
In short: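 Cells were seeded and rested 2 h, then exposed to compounds for 18-24 h. CellTiter-Fluor was read first as a viability measure. BugLite was added 15 min before the final luminescent read of ARE-luciferase activity in A549 cells.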
Potency means the concentration at half of the fitted maximal effect.

SMILES	Potency
Cc1ccccc1NC(=O)NCC1CCN(c2ccc(S(=O)(=O)N3CCOCC3)cc2)CC1	inconclusive: 29.1 µM [falling, single point]
COc1ccc(-n2cc(-c3ccccc3)[n+]3c2CCCCC3)cc1	active: 8.2 µM
OC1(c2cccc(C(F)(F)F)c2)CCN(c2ncnc3c2[nH]c2ccc(F)cc23)CC1	active: 11.6 µM
CC1(C)CC(=O)C(C=Nc2ccc(O)cc2)=C(O)C1	inconclusive: 29.1 µM [activator, single point]
C=C1CCN(c2ccc(C(=O)NCc3ccc(OC)cc3)cc2[N+](=O)[O-])CC1	inconclusive: 29.1 µM [falling, single point]
Cc1cc(-c2ccccc2)nc2[n+]1CCN2C	active: 5.17 µM
COc1ccccc1NC(=S)NCCSc1ccc(C)cc1	inactive
CCN(CC)CCN(C(=O)c1ccc(Br)s1)c1nc2cc3c(cc2s1)OCCO3	inconclusive: 29.1 µM [activator, single point]
COc1ccccc1N1CCN(Cc2cnc3ccc(Cl)cn23)CC1	inconclusive: 29.1 µM [falling, single point]
CCS(=O)(=O)n1nc(-c2ccccc2)nc1SCc1ccccc1	inconclusive: 13 µM [activator, partial curve, poor fit]
c1ccc(-c2nc(-n3ccnc3)nc(-n3ccnc3)n2)cc1	inconclusive: 7.31 µM [falling, partial curve]
O=S(=O)(O)c1cc(O)c2c(O)c(N=Nc3cc(Cl)ccc3O)c(S(=O)(=O)O)cc2c1	active: 20.6 µM
Clc1ccc2nc(CSc3nc4ccccc4o3)cn2c1	inconclusive: 0.291 µM [activator, full curve, poor fit]
CCC(=O)Nc1ccc2nc(SCCOc3cccc(C)c3)sc2c1	inconclusive: 29.1 µM [falling, single point]
Cc1ccccc1OCC(=O)Nc1nnc(C2CC2)s1	inactive
O=C(Nc1ccc(NC(=S)NC(=O)c2ccco2)cc1)c1ccccc1	inactive
COc1ccc(OCCNC(=O)c2ccc(C)cc2)cc1	inconclusive: 4.11 µM [activator, full curve]
NC(=O)CC(NC(=O)Cc1ccc(Br)cc1)c1ccc(N2CCC(Cc3ccccc3)CC2)c([N+](=O)[O-])c1 (configuration not stated)	inconclusive: 29.1 µM [falling, single point]
COCCn1c(SCC(=O)c2ccc(OC)cc2)nc2cc(C(=O)NC3CCCC3)ccc2c1=O	inconclusive: 29.1 µM [activator, single point]
O=C(CCC(=O)N1CCN(c2ccccc2F)CC1)c1ccc(F)cc1	inactive
CC(=O)c1c(C)oc2c(Cl)cc(NS(=O)(=O)c3cc(C)c(C)cc3C)cc12	inactive
Cc1ccc(C)c(N2CCN(C(=O)c3ccc(CSc4nc5ccncc5[nH]4)cc3)CC2)c1	inconclusive: 29.1 µM [falling, single point]
COc1ccc(/C=C2\CN(Cc3ccccc3)C/C(=C\c3ccc(OC)c(O)c3)C2=O)cc1O	inconclusive: 23.1 µM [falling, single point]

SMILES	Potency
CN(C)c1nc(OCCNC(=O)Nc2ccccc2)nc(N2CCCCC2)n1	inconclusive: 13 µM [falling, partial curve, poor fit]
N/C(=N\OC(=O)Cc1ccc(-c2ccccc2)cc1)c1cccc([N+](=O)[O-])c1	inconclusive: 32.6 µM [falling, single point]
Clc1nnc(NN=C2CCCC2)c2ccccc12	inconclusive: 1.03 µM [activator, full curve, poor fit]
O=C(CSc1nc(-c2ccc(F)cc2)cs1)NCC1CCCO1 (configuration not stated)	inconclusive: 25.9 µM [falling, single point]
Cc1ccc(-n2c(=O)c3c(c4cc(C)ccc4n3C)n(CC(=O)NCCC3=CCCCC3)c2=O)cc1	inactive
Cc1cc2ccccn2c1C(=O)Nc1ccc(Cl)cc1	inconclusive: 5.17 µM [activator, full curve]
Oc1c(C(c2cccs2)N2CCN(c3cccc(Cl)c3)CC2)sc2ncnn12 (configuration not stated)	inconclusive: 8.2 µM [falling, partial curve, poor fit]
O=C(O)C1CCC(c2ccc(-c3ccccc3)cc2)CC1 (configuration not stated)	inconclusive: 0.651 µM [activator, full curve, poor fit]
c1ccc(-c2ccc(SCc3cccnc3)nn2)nc1	inconclusive: 29.1 µM [activator, single point]
CCc1ccc(NC(=O)C2CCN(S(=O)(=O)c3cccs3)CC2)cc1	active: 3.66 µM
O=C1C2C3C=CC(C3)C2C(=O)N1c1ccc(Cc2ccncc2)cc1 (configuration not stated)	inconclusive: 10.3 µM [falling, partial curve]
Cc1cc(C)c2c(N)c(C(=O)Nc3ccccc3Br)sc2n1	inconclusive: 29.1 µM [falling, single point]
Cc1cc(C)cc(C(=O)Nc2ccc(N3CCCC3)cc2)c1	inconclusive: 9.2 µM [activator, partial curve]
COc1ccc(NC(=O)C#Cc2ccccc2)cc1	inactive
CCO[C@H]1OC(C(=O)N2CCN(Cc3ccc4c(c3)OCO4)CC2)=C[C@@H](C2CC2)[C@@H]1CCCO	inconclusive: 29.1 µM [activator, single point]
C=CCn1c(NC(=O)c2ccccc2Cl)c(C#N)c2nc3ccccc3nc21	inconclusive: 16.4 µM [falling, single point]
CCN(CC)S(=O)(=O)c1cc(NC(=O)CSc2nc3c(cc2C#N)C(=O)CC(C)(C)C3)ccc1C	active: 18.4 µM
CCc1ccc(NC(=O)N(C2CCCCC2)C(C)c2cccnc2)cc1 (configuration not stated)	inconclusive: 16.4 µM [activator, partial curve, poor fit]
Cc1ccnc(NC(=O)COc2ccc3c(c2)CCC3)c1	inconclusive: 1.03 µM [activator, full curve]
CS(=O)(=O)c1ccc(C(=O)OCC(=O)NC(=O)C2COc3ccccc3O2)cc1[N+](=O)[O-] (configuration not stated)	inactive
O=C(NCCc1c[nH]c2ccccc12)c1ccc2c(c1)OCO2	inconclusive: 18.4 µM [activator, partial curve]
O=C(Nc1ccc2sccc2c1)c1ccc(Cl)s1	inconclusive: 1.84 µM [activator, full curve]
COc1cc(C(O)c2nc3ccccc3s2)cc(OC)c1OC (configuration not stated)	inconclusive: 23.1 µM [falling, single point]

SMILES	Potency
O=C(CSCc1ccc(Cl)cc1)N/N=C/c1c(Cl)cccc1Cl	inconclusive: 6.51 µM [falling, partial curve]
CC(C)n1c(=S)[nH]c2ccccc2c1=O	inconclusive: 23.1 µM [falling, single point]
CC(C)Cc1ccc(S(=O)(=O)Nc2ccc3[nH]c(=O)[nH]c3c2)cc1	active: 11.6 µM and active: 18.4 µM
CC(=O)Cn1cnc2sc(-c3ccccc3)cc2c1=O	inconclusive: 3.66 µM [activator, full curve]
CCOc1ccc(OCC)c(NC(=O)c2cnc3c(-c4ccccc4)c(C)nn3c2C)c1	inconclusive: 2.31 µM [activator, partial curve, poor fit]
CCn1c(SCC(=O)N/N=C/c2cc(OC)c(OC)c(OC)c2)nc2ccccc21	inconclusive: 29.1 µM [falling, single point]
N#Cc1ccccc1COC(=O)c1cc(=O)c2ccccc2o1	inconclusive: 8.2 µM [activator, partial curve, poor fit]
C=C(C)COc1ccc(-c2ncncc2-c2ccc(Br)cc2)c(O)c1	inconclusive: 29.1 µM [falling, single point]
Cc1sc(N/N=C/c2ccco2)nc1-c1ccccc1	inactive
O=C(COC(=O)c1cn(-c2ccccc2)nc1-c1ccccc1)c1cccc([N+](=O)[O-])c1	inconclusive: 16.4 µM [falling, single point]
CN(c1ccccc1)S(=O)(=O)c1cccc(C(=O)NCC(=O)Nc2ccc(F)c(F)c2F)c1	inconclusive: 29.1 µM [falling, partial curve, poor fit]
CSc1ccc(S(=O)(=O)N2CCC(C(=O)Nc3ccc(NC(C)=O)cc3)CC2)cc1	inactive
Oc1ccccc1/C=N/Nc1ccccc1	inconclusive: 29.1 µM [activator, single point]
COc1ccc(-c2nn(-c3ccccc3)cc2C(=O)NCCCn2ccnc2)cc1	inactive
Cc1nc(C)n(C(Oc2ccc(Cl)cc2Cl)C(=O)C(C)(C)C)n1 (configuration not stated)	inactive
CCOc1ccc(CN2CCN(S(=O)(=O)c3ccc(Cl)cc3)CC2)cc1	inconclusive: 29.1 µM [falling, single point]
CC(=O)CCc1ccc(OCCCOc2cccc3cccnc23)cc1	inconclusive: 25.9 µM [falling, single point]
O=C(NC1CCCCCC1)c1c(O)nc2sccn2c1=O	inconclusive: 29.1 µM [falling, single point]
COc1cc(CNc2ccc3[nH]c(=O)[nH]c3c2)ccc1OCC(=O)NC(C)(C)C	inconclusive: 0.164 µM [falling, full curve, poor fit]
Cc1ccc(-c2ocnc2C(=O)Nc2ccccc2NC(=O)c2ccccn2)cc1	inconclusive: 32.6 µM [falling, single point]
CCC(=O)c1cc2c(cc1NC(=O)c1ccccc1)OCCO2	inconclusive: 0.651 µM [activator, full curve, poor fit]
